In all, about 330,000 compounds went through this assay and about 7,700 (2.3%) were called active. The shares of active, inactive and inconclusive entries below differ from those in the screen. The call rests on the fitted dose curve; in most records, active means well fitted inhibition curve with a large enough effect; inconclusive means small, poorly fitted or top-dose-only effect, or effect the other way; inactive means flat fitted curve, though single readings scatter. Potencies beside an inconclusive call are fits to weak or partial responses and may not hold up.
assay: qHTS screen for small molecules that inhibit ELG1-dependent DNA repair in human embryonic kidney (HEK293T) cells expressing luciferase-tagged ELG1; details: HEK293T ELG1-luciferase reporter, luminescence, 16 h, DNA damage induced by 5-fluorouridine; activity change, negative = inhibition: at 46.1 µM (top of the series); further: nearly all actives have a fitted effect of over 55% in size
Summary of the method: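 Step one: seed 2,000 cells per well. Step two: pin-transfer compound or DMSO alongside 5-fluorouridine. Step three: incubate 16 hr, 37 °C, 5% CO2. Step four: add ONE-Glo, wait 30 min, read luminescence.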
On the % scale 0 is the no-effect control and ±100 the full control effect; potency means the concentration at half of the fitted maximal effect.

Structure (SMILES) | Potency | activity change, negative = inhibition
Cc1c(NC(=O)COC(=O)c2cc(-c3ccc(-c4ccccc4)cc3)nc3ccccc23)c(=O)n(-c2ccccc2)n1C | inconclusive: 3.26 µM [activator, partial curve] | 
COc1ccc(CCN(C)C(=O)COc2ccc(C(=O)c3ccccc3)cc2)cc1OC | inconclusive: 25.9 µM [inhibitor, single point] | 
Cc1ccc(NS(=O)(=O)c2ccc(NC(=O)CSc3ccc(Cl)cc3)cc2)c(C)c1 | inconclusive: 29.1 µM [inhibitor, single point] | 
CCOC(=O)C1CCN(C(=O)Cn2cnc3sc(C)c(S(=O)(=O)N4CCCCC4)c3c2=O)CC1 |  | inactive: 6%
COc1ccc(C(=O)NNC(=O)CSc2nc(C(C)C)nc3ccccc23)cc1 |  | inactive: -3.48%
O=C(O)CCCCCNC(=O)Nc1ccc2c(c1)OCCO2 | inconclusive: 16.4 µM [activator, partial curve, poor fit] | 
O=C(CCC1N=C2c3ccccc3N=C(SCc3ccc(Cl)cc3)N2C1=O)NCc1ccco1 (stereo unspecified) |  | inactive: -23.9%
O=C(COC(=O)/C=C/c1ccc(Cl)cc1Cl)Nc1cc(C(F)(F)F)ccc1N1CCOCC1 | inconclusive: 0.231 µM [inhibitor, single point] | 
CC1(C)Oc2ccc(C(=O)N3CCOCC3)cc2N(CC(=O)Nc2ccccc2)C1=O | inconclusive: 29.1 µM [inhibitor, partial curve, poor fit] | 
CCOC(=O)N1CCC(NC(=O)CS(=O)(=O)Cc2nc(-c3cccc(Cl)c3)oc2C)CC1 | active: 14.6 µM | 
COCCN(C(=O)CCC(=O)Nc1cc(C)on1)C(C(=O)NC1CCCC1)c1ccc(C)cc1 (stereo unspecified) |  | inactive: -5.01%
C=C(C)C(=O)Nc1cccc(C2=NOC3(C2)C[C@H](C(N)=O)N(C(=O)COc2ccc(Cl)cc2)C3)c1 (stereo partly specified) | inconclusive: 29.1 µM [inhibitor, single point] | 
CCCCOc1ccccc1NC(=O)CC1SC(=NCC)N(CC)C1=O (stereo unspecified) | inconclusive: 23.1 µM [inhibitor, single point] | 
c1ccc(-c2cnnc(N3CCCCC3)n2)cc1 | inconclusive: 9.2 µM [activator, partial curve] | 
COc1cccc(CNC(=O)C(Cc2ccccc2)n2cccc2)c1 (stereo unspecified) |  | inactive: -4.45%
Cc1ccc(SCC(=O)NNC(=O)c2cncc(Br)c2)cc1 |  | inactive: 3.78%
CCOC(=O)c1c(NC(=O)CSc2nnc(-c3c[nH]c4ccccc34)n2CCOC)sc2c1CCCCC2 | inconclusive: 29.1 µM [inhibitor, single point] | 
COc1cc(NC(=O)[C@@H]2CCCN(S(=O)(=O)c3cccc4cccnc34)C2)cc(OC)c1OC | inconclusive: 5.62 µM [inhibitor, single point] | 
c1ccc2sc(-c3ccc4c(c3)OCO4)nc2c1 | inconclusive: 0.92 µM [activator, partial curve] | 
Cc1ccc2c(c1)C1NC(=S)NC(C)(O2)C1C(=O)Nc1ccc(Cl)cc1 (stereo unspecified) | inconclusive: 23.1 µM [inhibitor, partial curve] | 
COc1cc(N2CCCC2)c(OC)cc1C=O | inconclusive: 29.1 µM [inhibitor, single point] | 
O=C1NC(SCCCF)=N/C1=C/c1ccc(-n2cncn2)cc1 |  | inactive: 4.43%
COc1ccc(CNS(=O)(=O)NCc2ccccc2)cc1OC | inconclusive: 18.3 µM [inhibitor, single point] | 

Of the compounds above, these have fluorine.
Structure (SMILES) | Potency | activity change, negative = inhibition
O=C(COC(=O)/C=C/c1ccc(Cl)cc1Cl)Nc1cc(C(F)(F)F)ccc1N1CCOCC1 | inconclusive: 0.231 µM [inhibitor, single point] | 
O=C1NC(SCCCF)=N/C1=C/c1ccc(-n2cncn2)cc1 |  | inactive: 4.43%

Remaining list, next part.

Structure (SMILES) | Potency | activity change, negative = inhibition
CSc1nccc(Oc2cncc(Cl)c2)n1 | inconclusive: 13 µM [inhibitor, partial curve] | 
O=C(CSCc1ccccc1F)NCc1ccccc1 | inconclusive: 16.4 µM [activator, partial curve] | 
Cc1cc(C(=O)N/N=C/c2cccn2C)n[nH]1 | inconclusive: 16.4 µM [activator, partial curve] | 
O=C(CSc1ccc(-c2ccco2)nn1)N1CCCC1 | inconclusive: 20.6 µM [activator, single point] | 
COc1ccccc1C(=O)OCc1cc(=O)n2ccsc2n1 | inconclusive: 16.4 µM [activator, partial curve] | 
CCc1noc(C)c1C(=O)OCC(=O)N1CCc2ccccc21 | inconclusive: 2.91 µM [activator, partial curve, poor fit] | 
CC1CCCCC1NC(=O)COC(=O)c1cc(=O)[nH]c2ccccc12 (stereo unspecified) |  | inactive: -20.7%
CC1CCC(NC(=O)c2cc3ccccc3cc2O)CC1 (stereo unspecified) | inconclusive: 9.2 µM [activator, partial curve] | 
COc1cc(O)c(C(CCN2CCN(c3ccccc3)CC2)c2ccc(N(C)C)cc2)c(OC)c1 (stereo unspecified) |  | inactive: 1.64%
CN1CCN(CC(O)Cn2c3ccccc3c3ccccc32)CC1 (stereo unspecified) |  | inactive: -1.35%
CCn1c(=O)cc(OCC(=O)Nc2ccccc2N2CCN(C)CC2)c2ccccc21 | inconclusive: 20.6 µM [activator, single point] | 
CN(C)c1ccc(/C=N/n2c(C3CCCCC3)n[nH]c2=S)cc1 |  | inactive: -3.03%
N#C/C(=C\c1cc2ccccc2nc1N1CCOCC1)C(=O)Nc1ccc(N2CCOCC2)cc1 | active: 11.6 µM | 
Cc1sc2ncnc(N3CCC(C(=O)Nc4ccc(OC(F)F)c(Cl)c4)CC3)c2c1C | active: 10.3 µM | 
O=C(CSCc1ccccc1F)NCc1ccc(F)cc1 | inconclusive: 29.1 µM [activator, single point] | 
O=C(COc1cccc(F)c1)NNC(=O)Cc1ccc(Br)cc1 |  | inactive: 7.27%
COCCSc1ccccc1C(=O)Nc1nnc(C)s1 | inconclusive: 29.1 µM [activator, partial curve, poor fit] | 
Clc1ccc2oc(-c3cccnc3)nc2c1 | inconclusive: 13 µM [activator, partial curve] | 
CCn1nc(C)c(C2C(C#N)=C(N)Oc3n[nH]c(C)c32)c1C (stereo unspecified) |  | inactive: -4.21%
COc1cc(C(=S)NCc2ccccc2)cc(Br)c1O |  | inactive: -1.45%
COc1ccccc1C1NC=C([N+](=O)[O-])C=C1[N+](=O)[O-] (stereo unspecified) |  | inactive: -22.7%
COCC(=O)Nc1nc2ccc(C)cc2s1 | inconclusive: 2.06 µM [activator, full curve] | 
CCCC(=O)Nc1ccc(-c2nc3cc(C)c(C)cc3o2)c(O)c1 | inconclusive: 5.17 µM [activator, full curve] | 
